Measurements reported in PubChem BioAssay AID1224830 (NIAID, 2016)
The whole screen tested about 18,000 reagents; shown is a random part of them. In the full data, about 2,900 (16%) got an active call. 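Calls are made per well; low scores hint the gene aids the LPS response, high scores that it dampens it.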 Unmarked entries are inactive. Repeated entries: four replicate wells of each siRNA pool. No sequences are given here.

- Test: 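Host factors that control LPS-induced TNF expression in human macrophages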 (primary screen)
- Cell system: human THP-1 monocytic leukaemia cells, TNF dual-luciferase reporter clone, PMA-differentiated to macrophage-like cells
- Reagent: siRNA pool against human genes, 50 nM
- Duration: LPS for 4 h, given about 3 days after siRNA transfection
- Treatment: bacterial LPS (TLR4 ligand), 10 ng/ml
- Read-out: 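TNF firefly reporter luminescence divided by renilla, normalised to the plate median, then turned into a robust z-score for each replicate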
- Reading the numbers: TNF reporter robust z-score: higher = stronger TNF reporter response to LPS
- Rule for the call: 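Each well counts as active if its z-score is over 2.8 or under -1.5; controls are left without a call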

LYPD8 (LY6/PLAUR domain containing 8) — TNF reporter robust z-score = -1.1
LYPD8 (LY6/PLAUR domain containing 8) — TNF reporter robust z-score = -0.51
LYPD8 (LY6/PLAUR domain containing 8) — TNF reporter robust z-score = -0.41
LYPD8 (LY6/PLAUR domain containing 8) — TNF reporter robust z-score = -0.7
DYDC2 (DPY30 domain containing 2) — TNF reporter robust z-score = -0.82
DYDC2 (DPY30 domain containing 2) — TNF reporter robust z-score = 0.95
DYDC2 (DPY30 domain containing 2) — TNF reporter robust z-score = 0.56
DYDC2 (DPY30 domain containing 2) — TNF reporter robust z-score = -0.25
APOL3 (apolipoprotein L3) — TNF reporter robust z-score = -0.2
APOL3 (apolipoprotein L3) — TNF reporter robust z-score = -0.4
APOL3 (apolipoprotein L3) — TNF reporter robust z-score = -0.08
APOL3 (apolipoprotein L3) — TNF reporter robust z-score = -0.45
PLCH2 (phospholipase C eta 2) — TNF reporter robust z-score = -0.2
PLCH2 (phospholipase C eta 2) — TNF reporter robust z-score = 0.58
PLCH2 (phospholipase C eta 2) — TNF reporter robust z-score = 0.52
PLCH2 (phospholipase C eta 2) — TNF reporter robust z-score = 0.53
AP2S1 (adaptor related protein complex 2 subunit sigma 1) — TNF reporter robust z-score = 0.04
AP2S1 (adaptor related protein complex 2 subunit sigma 1) — TNF reporter robust z-score = -0.52
AP2S1 (adaptor related protein complex 2 subunit sigma 1) — TNF reporter robust z-score = -0.65
AP2S1 (adaptor related protein complex 2 subunit sigma 1) — TNF reporter robust z-score = -0.2
SUDS3 (SIN3A corepressor complex component SDS3) — TNF reporter robust z-score = 0.28
SUDS3 (SIN3A corepressor complex component SDS3) — TNF reporter robust z-score = -0.55
SUDS3 (SIN3A corepressor complex component SDS3) — TNF reporter robust z-score = 0.79
SUDS3 (SIN3A corepressor complex component SDS3) — TNF reporter robust z-score = 1.12
LBX2 (ladybird homeobox 2) — TNF reporter robust z-score = -1.31
LBX2 (ladybird homeobox 2) — TNF reporter robust z-score = -0.53
LBX2 (ladybird homeobox 2) — TNF reporter robust z-score = -1.35
LBX2 (ladybird homeobox 2) — TNF reporter robust z-score = -0.6
PPP1R42 (protein phosphatase 1 regulatory subunit 42) — TNF reporter robust z-score = 0.29
PPP1R42 (protein phosphatase 1 regulatory subunit 42) — TNF reporter robust z-score = -0.19
PPP1R42 (protein phosphatase 1 regulatory subunit 42) — TNF reporter robust z-score = 0.55
PPP1R42 (protein phosphatase 1 regulatory subunit 42) — TNF reporter robust z-score = 1.23
